Record: PubChem BioAssay AID720505 (Drosophila RNAi Screening Center, 2013)
The screen tested about 20,000 reagents; shown is a random part of those with a known target gene and a result. Over the whole deposit, about 2,100 (10%) are marked active. 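Raw plate signals without normalisation; calls rest on control-based scores that were not deposited; replicate 2 separates called from uncalled poorly.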 Reagents against one gene are numbered here. Names joined by + are all predicted targets of the reagent. Not stated in the record: the amount of reagent, the time to read-out.

- Test: 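Knock-downs that reduce calcium influx once internal stores are emptied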 (primary screen)
- Cell system: Drosophila S2R+ cells
- Reagent: long dsRNA against Drosophila genes
- Conditions: thapsigargin (2 µM) in calcium-free buffer to empty internal stores, then 2 mM calcium added back
- Measurement: 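Stores emptied by 2 µM thapsigargin without calcium, then 2 mM calcium re-added; fluo-4 fluorescence followed by FLIPR in 384-well plates, per-well averaged endpoint, raw; two screen passes, some wells retested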
- Direction: calcium signal and retest calcium signal: higher = more calcium entry after store depletion
- Call rule: 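Knock-downs counted as hits when calcium entry dropped relative to STIM1 positive and Rho1 negative controls present on each plate; roughly 1500 genes called, with reductions of differing size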
- Meaning of the calls: active = called as lowering calcium entry; inactive = not called

With CG43774 + CG43773 #1, what was measured?
calcium signal, replicate 1: 201; calcium signal, replicate 2: 85.7; outcome: inactive

Which result is listed for CG43774 + CG43773 #2?
calcium signal, replicate 1: 197; calcium signal, replicate 2: 86.5; outcome: inactive

For CG17127, what was measured?
calcium signal, replicate 1: 118; calcium signal, replicate 2: 106; outcome: inactive

With CG14762 #1, what does the deposit list?
calcium signal, replicate 1: 93.7; calcium signal, replicate 2: 126; outcome: inactive

Which result is listed for CG14762 #2?
calcium signal, replicate 1: 105; calcium signal, replicate 2: 82.6; outcome: inactive

How did the screen score CG17078?
calcium signal, replicate 1: 162; calcium signal, replicate 2: 122; outcome: inactive

What is on record for CG8379?
calcium signal, replicate 1: 122; calcium signal, replicate 2: 161; outcome: inactive

How did the screen score Svil #1?
outcome: active

For Svil #2, what was measured?
calcium signal, replicate 1: 146; calcium signal, replicate 2: 86.4; outcome: inactive

With Svil #3, what was measured?
calcium signal, replicate 1: 116; calcium signal, replicate 2: 79.5; outcome: inactive

What did the screen give for Svil #4?
calcium signal, replicate 1: 111; calcium signal, replicate 2: 57.4; outcome: inactive

With Svil #5, how do the results read?
calcium signal, replicate 1: 96.5; calcium signal, replicate 2: 83.3; outcome: inactive

4 entries from above, set out differently:
{"predicted target": "CG14762", "dsRNA no.": 1, "calcium signal, replicate 1": 93.7, "calcium signal, replicate 2": 126, "outcome": "inactive"}
{"predicted target": "CG14762", "dsRNA no.": 2, "calcium signal, replicate 1": 105, "calcium signal, replicate 2": 82.6, "outcome": "inactive"}
{"predicted target": "CG17078", "dsRNA no.": 1, "calcium signal, replicate 1": 162, "calcium signal, replicate 2": 122, "outcome": "inactive"}
{"predicted target": "CG8379", "dsRNA no.": 1, "calcium signal, replicate 1": 122, "calcium signal, replicate 2": 161, "outcome": "inactive"}

More entries follow.
With Vti1a, what was measured?
calcium signal, replicate 1: 73.3; calcium signal, replicate 2: 125; outcome: active

What is on record for Alg13?
calcium signal, replicate 1: 189; calcium signal, replicate 2: 126; retest calcium signal, replicate 1: 126; retest calcium signal, replicate 2: 85.2; outcome: inactive

What did the screen give for CR18275 + CG13373?
calcium signal, replicate 1: 68.3; calcium signal, replicate 2: 108; outcome: inactive

What did the screen give for CG17186?
calcium signal, replicate 1: 168; calcium signal, replicate 2: 143; outcome: inactive

For CG10953, what does the deposit list?
calcium signal, replicate 1: 238; calcium signal, replicate 2: 165; outcome: inactive

Which result is listed for CG3708?
calcium signal, replicate 1: 145; calcium signal, replicate 2: 157; outcome: inactive

What is on record for CG40045?
calcium signal, replicate 1: 176; calcium signal, replicate 2: 123; outcome: inactive

Which result is listed for Vha16-2?
calcium signal, replicate 1: 86.6; calcium signal, replicate 2: 105; outcome: inactive

For CG32037, what does the deposit list?
calcium signal, replicate 1: 55.1; calcium signal, replicate 2: 94.5; outcome: active

What is on record for CG12091?
calcium signal, replicate 1: 92.9; calcium signal, replicate 2: 69.5; outcome: inactive

Which result is listed for CAH2?
calcium signal, replicate 1: 87.2; calcium signal, replicate 2: 78.5; outcome: inactive

What is on record for Bro?
calcium signal, replicate 1: 90.4; calcium signal, replicate 2: 84.1; outcome: inactive

Which result is listed for CG1360?
calcium signal, replicate 1: 158; calcium signal, replicate 2: 106; outcome: inactive

For CG15198, what was measured?
calcium signal, replicate 1: 99.6; calcium signal, replicate 2: 82.7; outcome: inactive

With Rhau, how do the results read?
calcium signal, replicate 1: 66.4; calcium signal, replicate 2: 84.2; outcome: active

With zip #1, how do the results read?
calcium signal, replicate 1: 75.9; calcium signal, replicate 2: 128; retest calcium signal, replicate 1: 108; retest calcium signal, replicate 2: 104; outcome: inactive

With zip #2, how do the results read?
calcium signal, replicate 1: 119; calcium signal, replicate 2: 225; outcome: inactive
